Data taken from publication PMC11477109, “NgAP2a Targets KCS Gene to Promote Lipid Accumulation in Nannochloropsis gaditana”.

These sequences were tested against T1, PET28-NgAP2a (Nannochloropsis gaditana) (UniProt W7TGT1) (assay: EMSA). Conditions: Beyotime Chemiluminescent EMSA Kit GS009 per manual; pH and temperature not stated; recombinant protein; label: 3' biotin.
T1 sequence (looked up, limits assumed): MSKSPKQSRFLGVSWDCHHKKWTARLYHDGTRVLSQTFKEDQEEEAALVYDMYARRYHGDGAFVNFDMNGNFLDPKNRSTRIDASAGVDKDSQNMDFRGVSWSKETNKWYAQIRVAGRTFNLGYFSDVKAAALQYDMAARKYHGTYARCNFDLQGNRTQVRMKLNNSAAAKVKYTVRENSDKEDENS
“ACGCCAGGACGGGAGACTTCAACAGGGGGT (double strand) [M6 probe (EMSA6)]”: no binding. “AGGTTGCAACCAGCCGAAACCCTGATGCTG (double strand) [M4 probe (EMSA4)]”: no binding. “GTAGAGGAGTTCGTCAACCCTAAGTTCAAGGA (double strand) [M2 probe (EMSA2)]”: no binding. “GTTATGCTCCAAAAACCTATGGGGATTGTATTG (double strand) [M8 probe (EMSA8)]”: no binding.

Negatives hold for the conditions tested. At least one verdict rests on a figure or table, not on a statement of the authors. Protein sequences can lack the tags named with them.
